For at least one compound, name, drawing or mass did not settle the structure.
Test: Dissolution of matrix compounds when preparing test solutions (Example 4a)
Format: physicochemical
Conditions: acetonitrile/water (1:1 v/v)
Description: Conventional MALDI matrix compounds 2,5-dihydroxybenzoic acid (2,5-DHB); 1,5-diaminonaphthalene (1,5-DAN); 3-hydroxycoumarin (3-HC); […] (2,5-DHAP); 2-mercaptobenzothiazole (2-MBT) and dithranol, respectively, were dissolved in acetonitrile/water (1:1 v/v) at a concentration of 5 mg/mL. […] 1 μL of each resulting solution was pipetted onto an ITO glass slide. After droplets had dried in the air, a first optical image (Aperio CS2 Scanner, Leica Biosystems, Wetzlar, Germany) of the whole ITO slides at 0 min. was recorded. The slides were then incubated at about 35° C. and a vacuum between about 3.5×10^−6 mbar (t=0 min.) and about 1.4×10^−7 mbar (t=892 min.) in an ultrafleXtreme™ MALDI TOF mass spectrometer (Bruker Daltonics) equipped with a Smartbeam-II Nd:YAG laser (355 nm) for time periods of 18 min., 80 min. and 892 min., respectively. After each time interval, additional optical images were taken of the slides. For 2,5-dihydroxyacetophenone (2,5-DHAP) a similar test was performed with a diluted solution (2.5 mg/mL). […]

O=C1c2c(O)cccc2Cc2cccc(O)c21 [dithranol]
dissolution at a concentration of 5 mg/mL: not completely dissolved
